Paper PMC9852476
Results are given in words; binding and its absence hold for the method and conditions named. Binding seen in cells or lysates may run through a third protein. These calls come from enrichment with a bait or labelling near it, and not all partners need be listed.

By UniProt entry, the sequences of proteins in these tests, tags left out. Residues count along the entry.
UniProt Q99623: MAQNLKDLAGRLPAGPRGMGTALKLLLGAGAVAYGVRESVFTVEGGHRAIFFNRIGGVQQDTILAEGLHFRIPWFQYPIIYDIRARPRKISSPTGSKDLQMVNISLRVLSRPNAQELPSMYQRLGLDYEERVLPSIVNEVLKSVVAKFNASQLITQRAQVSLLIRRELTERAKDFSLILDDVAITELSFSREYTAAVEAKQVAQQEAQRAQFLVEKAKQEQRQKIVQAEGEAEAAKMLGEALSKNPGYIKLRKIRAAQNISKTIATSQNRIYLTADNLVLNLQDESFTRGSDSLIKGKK
UniProt P28331, residues 24-727: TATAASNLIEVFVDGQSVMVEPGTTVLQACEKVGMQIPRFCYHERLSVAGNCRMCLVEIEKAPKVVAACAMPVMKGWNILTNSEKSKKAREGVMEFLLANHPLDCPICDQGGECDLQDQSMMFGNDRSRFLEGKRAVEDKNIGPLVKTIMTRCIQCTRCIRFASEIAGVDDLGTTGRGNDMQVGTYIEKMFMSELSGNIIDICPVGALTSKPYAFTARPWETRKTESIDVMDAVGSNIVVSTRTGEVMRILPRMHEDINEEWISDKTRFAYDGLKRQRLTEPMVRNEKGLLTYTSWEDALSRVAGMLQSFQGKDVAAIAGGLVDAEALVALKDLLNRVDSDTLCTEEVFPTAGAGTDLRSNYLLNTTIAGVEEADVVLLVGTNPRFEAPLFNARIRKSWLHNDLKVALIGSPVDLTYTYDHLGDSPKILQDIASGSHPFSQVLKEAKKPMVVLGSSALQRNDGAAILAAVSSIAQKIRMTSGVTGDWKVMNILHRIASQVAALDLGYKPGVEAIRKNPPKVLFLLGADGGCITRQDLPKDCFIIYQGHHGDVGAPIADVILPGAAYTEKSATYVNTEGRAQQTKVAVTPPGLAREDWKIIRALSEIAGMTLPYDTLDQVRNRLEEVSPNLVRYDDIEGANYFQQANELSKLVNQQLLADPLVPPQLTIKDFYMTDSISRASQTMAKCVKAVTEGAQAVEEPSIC

Molecular target: Prohibitin 2 (PHB2) (human (endogenous in HCT116 and HT-29)) (UniProt Q99623)
Test: affinity purification with mass spectrometry; HCT116 lysates immunoprecipitated with anti-PHB2 antibody (4 ug) or control IgG, gel electrophoresis, Coomassie staining, gel strips analysed by LC-MS/MS

Question: For “NADH:ubiquinone oxidoreductase core subunit S1 (NDUFS1) (from UniProt P28331 24-727)”, which binding is on record?
Answer: binds
